Experimental data: paper doi:10.1101/2025.11.23.690026

Protein sequences, listed by entry. Tags and fused reporters are not part of them. Lines headed by an entry give the natural chain unless they say otherwise; changes in a name come on top.
UniProt P22082: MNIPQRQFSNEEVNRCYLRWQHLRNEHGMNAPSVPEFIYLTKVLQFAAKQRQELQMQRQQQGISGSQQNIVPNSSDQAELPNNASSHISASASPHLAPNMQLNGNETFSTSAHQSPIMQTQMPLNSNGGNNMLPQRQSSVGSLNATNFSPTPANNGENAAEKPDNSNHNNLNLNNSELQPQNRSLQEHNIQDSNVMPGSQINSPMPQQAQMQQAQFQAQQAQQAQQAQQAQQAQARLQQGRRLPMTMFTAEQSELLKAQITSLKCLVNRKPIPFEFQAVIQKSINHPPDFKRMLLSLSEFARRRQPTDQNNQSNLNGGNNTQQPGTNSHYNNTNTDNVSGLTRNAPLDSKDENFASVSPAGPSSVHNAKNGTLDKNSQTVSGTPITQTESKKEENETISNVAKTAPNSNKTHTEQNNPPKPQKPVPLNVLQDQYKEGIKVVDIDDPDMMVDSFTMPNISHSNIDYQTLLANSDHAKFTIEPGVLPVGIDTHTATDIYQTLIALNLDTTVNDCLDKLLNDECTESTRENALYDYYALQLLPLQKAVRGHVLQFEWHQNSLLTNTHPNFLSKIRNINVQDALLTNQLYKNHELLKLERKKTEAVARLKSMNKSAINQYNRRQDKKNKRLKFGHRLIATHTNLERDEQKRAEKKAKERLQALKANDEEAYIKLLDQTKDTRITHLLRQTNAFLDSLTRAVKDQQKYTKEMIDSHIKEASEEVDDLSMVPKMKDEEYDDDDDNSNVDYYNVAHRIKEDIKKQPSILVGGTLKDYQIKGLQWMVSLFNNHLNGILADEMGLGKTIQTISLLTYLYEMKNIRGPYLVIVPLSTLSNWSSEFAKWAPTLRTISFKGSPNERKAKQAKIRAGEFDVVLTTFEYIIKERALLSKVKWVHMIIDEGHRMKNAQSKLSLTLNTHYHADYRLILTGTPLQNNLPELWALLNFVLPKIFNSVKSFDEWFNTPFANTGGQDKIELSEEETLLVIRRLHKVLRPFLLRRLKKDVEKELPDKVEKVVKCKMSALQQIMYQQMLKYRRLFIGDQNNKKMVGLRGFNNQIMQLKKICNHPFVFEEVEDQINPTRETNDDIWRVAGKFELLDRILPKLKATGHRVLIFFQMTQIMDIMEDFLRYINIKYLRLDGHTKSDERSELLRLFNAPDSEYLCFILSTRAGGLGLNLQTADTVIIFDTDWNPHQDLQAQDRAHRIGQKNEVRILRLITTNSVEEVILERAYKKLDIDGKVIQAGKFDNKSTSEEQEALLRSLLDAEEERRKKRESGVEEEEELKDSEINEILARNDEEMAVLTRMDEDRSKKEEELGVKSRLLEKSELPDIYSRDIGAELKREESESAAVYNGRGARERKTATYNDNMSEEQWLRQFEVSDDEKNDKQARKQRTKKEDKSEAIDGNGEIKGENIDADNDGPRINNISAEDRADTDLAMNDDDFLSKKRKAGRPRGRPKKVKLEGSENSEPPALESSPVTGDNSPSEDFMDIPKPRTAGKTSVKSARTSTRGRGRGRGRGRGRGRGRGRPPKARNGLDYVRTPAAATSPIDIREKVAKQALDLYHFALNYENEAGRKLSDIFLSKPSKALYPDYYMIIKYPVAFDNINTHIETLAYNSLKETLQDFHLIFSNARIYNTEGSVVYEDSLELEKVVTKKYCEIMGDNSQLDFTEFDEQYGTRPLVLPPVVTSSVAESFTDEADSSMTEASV
UniProt P04050: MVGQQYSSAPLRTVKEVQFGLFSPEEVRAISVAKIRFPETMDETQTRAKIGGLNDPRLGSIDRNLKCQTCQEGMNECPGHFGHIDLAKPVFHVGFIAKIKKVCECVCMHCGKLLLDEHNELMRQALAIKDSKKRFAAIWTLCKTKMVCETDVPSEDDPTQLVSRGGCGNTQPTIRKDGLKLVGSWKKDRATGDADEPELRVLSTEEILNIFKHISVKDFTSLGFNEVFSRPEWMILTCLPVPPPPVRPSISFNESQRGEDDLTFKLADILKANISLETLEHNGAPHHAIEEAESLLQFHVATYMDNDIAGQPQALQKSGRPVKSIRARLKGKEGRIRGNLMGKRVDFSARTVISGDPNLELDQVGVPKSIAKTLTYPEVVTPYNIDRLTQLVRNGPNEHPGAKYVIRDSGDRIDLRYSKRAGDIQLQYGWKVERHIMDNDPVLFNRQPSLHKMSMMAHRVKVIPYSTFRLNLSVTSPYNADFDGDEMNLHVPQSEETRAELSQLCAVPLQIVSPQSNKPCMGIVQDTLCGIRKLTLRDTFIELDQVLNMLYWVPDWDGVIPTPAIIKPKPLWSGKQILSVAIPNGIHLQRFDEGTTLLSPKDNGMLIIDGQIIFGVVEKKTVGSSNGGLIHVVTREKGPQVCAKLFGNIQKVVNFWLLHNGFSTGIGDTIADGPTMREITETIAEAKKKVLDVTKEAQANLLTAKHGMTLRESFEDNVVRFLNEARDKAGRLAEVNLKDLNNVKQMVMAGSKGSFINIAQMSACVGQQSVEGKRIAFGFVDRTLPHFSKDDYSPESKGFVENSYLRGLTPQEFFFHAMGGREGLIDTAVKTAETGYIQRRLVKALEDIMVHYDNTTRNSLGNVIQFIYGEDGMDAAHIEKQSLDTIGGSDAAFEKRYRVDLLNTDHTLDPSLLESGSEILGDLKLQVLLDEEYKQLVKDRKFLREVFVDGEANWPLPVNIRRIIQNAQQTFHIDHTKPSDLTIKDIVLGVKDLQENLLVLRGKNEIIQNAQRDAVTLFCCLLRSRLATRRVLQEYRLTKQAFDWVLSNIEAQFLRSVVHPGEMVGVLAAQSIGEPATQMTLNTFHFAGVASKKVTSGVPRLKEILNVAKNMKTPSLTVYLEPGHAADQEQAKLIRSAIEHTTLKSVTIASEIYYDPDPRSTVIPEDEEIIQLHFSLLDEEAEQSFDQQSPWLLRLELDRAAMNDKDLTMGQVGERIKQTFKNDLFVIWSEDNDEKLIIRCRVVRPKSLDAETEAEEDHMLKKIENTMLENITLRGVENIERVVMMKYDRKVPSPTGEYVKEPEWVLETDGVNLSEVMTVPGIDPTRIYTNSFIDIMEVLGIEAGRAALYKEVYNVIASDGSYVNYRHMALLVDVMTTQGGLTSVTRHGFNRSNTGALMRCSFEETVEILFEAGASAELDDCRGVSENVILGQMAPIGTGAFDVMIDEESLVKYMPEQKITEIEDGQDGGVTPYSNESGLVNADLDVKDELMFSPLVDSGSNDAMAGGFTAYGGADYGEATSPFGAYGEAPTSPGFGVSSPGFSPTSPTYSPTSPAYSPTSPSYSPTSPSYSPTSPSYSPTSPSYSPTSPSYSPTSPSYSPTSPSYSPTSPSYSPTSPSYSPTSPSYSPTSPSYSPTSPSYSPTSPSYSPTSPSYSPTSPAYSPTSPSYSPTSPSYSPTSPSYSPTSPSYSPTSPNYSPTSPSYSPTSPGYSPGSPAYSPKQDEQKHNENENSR

T1: Set1 1-754 (S. cerevisiae) (UniProt P38827)
T1 sequence: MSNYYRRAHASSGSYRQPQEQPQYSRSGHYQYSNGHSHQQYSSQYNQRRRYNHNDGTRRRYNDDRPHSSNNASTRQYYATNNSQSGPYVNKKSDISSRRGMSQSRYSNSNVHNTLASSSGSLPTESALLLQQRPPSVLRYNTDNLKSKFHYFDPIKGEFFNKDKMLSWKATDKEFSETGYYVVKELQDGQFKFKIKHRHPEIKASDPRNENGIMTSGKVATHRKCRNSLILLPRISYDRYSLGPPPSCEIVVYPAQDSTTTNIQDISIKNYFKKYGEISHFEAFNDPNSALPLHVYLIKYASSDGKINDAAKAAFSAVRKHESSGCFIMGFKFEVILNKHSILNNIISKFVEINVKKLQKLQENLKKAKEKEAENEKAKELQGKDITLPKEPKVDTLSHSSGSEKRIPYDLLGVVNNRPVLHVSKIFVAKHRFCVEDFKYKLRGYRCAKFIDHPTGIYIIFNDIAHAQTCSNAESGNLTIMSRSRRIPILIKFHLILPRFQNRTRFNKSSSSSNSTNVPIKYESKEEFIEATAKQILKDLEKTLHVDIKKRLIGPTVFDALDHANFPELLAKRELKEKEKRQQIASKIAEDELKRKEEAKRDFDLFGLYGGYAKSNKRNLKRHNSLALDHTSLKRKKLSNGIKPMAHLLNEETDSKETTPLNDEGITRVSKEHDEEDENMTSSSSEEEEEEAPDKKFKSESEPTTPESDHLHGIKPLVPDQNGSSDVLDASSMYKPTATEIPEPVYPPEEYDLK


How the values were obtained:
[1] = target: T1, Set1 1-754 (S. cerevisiae); assay: two-hybrid
[2] = target: Snf2ΔRG-Myc (S. cerevisiae) (UniProt P22082); assay: co-IP

Row | binding [1] | binding [2] | Molecule
1 | binds | – | CTD of Rpb1 (from UniProt P04050) (domain or fragment)
2 | – | binds | Set1 (endogenous) (protein, UniProt P38827 1-1080) MSNYYRRAHASSGSYRQPQEQPQYSRSGHYQYSNGHSHQQYSSQYNQRRRYNHNDGTRRRYNDDRPHSSNNASTRQYYATNNSQSGPYVNKKSDISSRRGMSQSRYSNSNVHNTLASSSGSLPTESALLLQQRPPSVLRYNTDNLKSKFHYFDPIKGEFFNKDKMLSWKATDKEFSETGYYVVKELQDGQFKFKIKHRHPEIKASDPRNENGIMTSGKVATHRKCRNSLILLPRISYDRYSLGPPPSCEIVVYPAQDSTTTNIQDISIKNYFKKYGEISHFEAFNDPNSALPLHVYLIKYASSDGKINDAAKAAFSAVRKHESSGCFIMGFKFEVILNKHSILNNIISKFVEINVKKLQKLQENLKKAKEKEAENEKAKELQGKDITLPKEPKVDTLSHSSGSEKRIPYDLLGVVNNRPVLHVSKIFVAKHRFCVEDFKYKLRGYRCAKFIDHPTGIYIIFNDIAHAQTCSNAESGNLTIMSRSRRIPILIKFHLILPRFQNRTRFNKSSSSSNSTNVPIKYESKEEFIEATAKQILKDLEKTLHVDIKKRLIGPTVFDALDHANFPELLAKRELKEKEKRQQIASKIAEDELKRKEEAKRDFDLFGLYGGYAKSNKRNLKRHNSLALDHTSLKRKKLSNGIKPMAHLLNEETDSKETTPLNDEGITRVSKEHDEEDENMTSSSSEEEEEEAPDKKFKSESEPTTPESDHLHGIKPLVPDQNGSSDVLDASSMYKPTATEIPEPVYPPEEYDLKYSQTLSSMDLQNAIKDEEDMLILKQLLSTYTPTVTPETSAALEYKIWQSRRKVLEEEKASDWQIELNGTLFDSELQPGSSFKAEGFRKIADKLKINYLPHRRRVHQPLNTVNIHNERNEYTPELCQREESSNKEPSDSVPQEVSSSRDNRASNRRFQQDIEAQKAAIGTESELLSLNQLNKRKKPVMFARSAIHNWGLYALDSIAAKEMIIEYVGERIRQPVAEMREKRYLKNGIGSSYLFRVDENTVIDATKKGGIARFINHCCDPNCTAKIIKVGGRRRIVIYALRDIAASEELTYDYKFEREKDDEERLPCLCGAPNCKGFLN

No constants are given. Whether binding was seen depends on the method and setting. A result given as binding can be weak or reduced; the word gives no strength. For some assays here: Binding seen in cells or lysates may run through a third protein.
